From PMC5437272
Residue numbers refer to the chain shown, from its start. No constants are given. Whether binding was seen depends on the method and setting. Binding seen in cells or lysates may run through a third protein. Here binding means that the protein was enriched with, or labelled near, the bait; the list need not be complete. For part of these data: No binding means not detected with the bait. For part of these data: Sequences can lack the tags named with a protein.

Chains of the proteins cited; added tags and fusions are not shown. Lines headed by an entry give the natural chain unless they say otherwise; changes in a name come on top.
UniProt Q8CAK1: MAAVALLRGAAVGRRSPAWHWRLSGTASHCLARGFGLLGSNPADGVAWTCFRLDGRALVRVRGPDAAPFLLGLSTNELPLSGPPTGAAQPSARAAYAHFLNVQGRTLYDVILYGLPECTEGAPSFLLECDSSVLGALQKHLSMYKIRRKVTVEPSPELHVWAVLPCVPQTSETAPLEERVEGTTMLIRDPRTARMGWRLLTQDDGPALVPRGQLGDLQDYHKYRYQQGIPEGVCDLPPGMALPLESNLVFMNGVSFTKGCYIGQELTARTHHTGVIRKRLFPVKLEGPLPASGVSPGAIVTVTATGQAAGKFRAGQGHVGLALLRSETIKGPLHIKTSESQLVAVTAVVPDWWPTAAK
UniProt Q9DCB8: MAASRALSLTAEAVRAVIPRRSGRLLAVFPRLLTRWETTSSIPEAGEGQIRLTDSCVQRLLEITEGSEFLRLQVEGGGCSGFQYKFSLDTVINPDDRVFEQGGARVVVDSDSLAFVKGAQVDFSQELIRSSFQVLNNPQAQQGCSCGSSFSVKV

Legend:
Test in all cases: affinity purification with mass spectrometry; Flag M2 resin IP from mitochondria-enriched extracts of HeLa cells expressing one C-terminally Flag-tagged mouse bait; crude eluates analysed by MudPIT; partners enriched 10 x over control IP and mitochondrial input; three biological replicates
[1] = target: T1, ISCA1-Flag (mouse ISCA1 with a C-terminal Flag epitope) (mouse) (UniProt Q9D924)
T1 sequence: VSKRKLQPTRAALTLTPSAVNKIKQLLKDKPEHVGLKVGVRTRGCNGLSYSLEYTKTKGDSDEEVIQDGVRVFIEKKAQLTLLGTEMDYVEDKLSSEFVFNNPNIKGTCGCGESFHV

[2] = target: IBA57-Flag (mouse IBA57 with a C-terminal Flag epitope) (mouse) (UniProt Q8CAK1)
[3] = target: ISCA2-Flag (mouse ISCA2 with a C-terminal Flag epitope) (mouse) (UniProt Q9DCB8)
[4] = target: T2, FDX2-Flag (mouse FDX2 with a C-terminal Flag epitope) (mouse) (UniProt Q9CPW2)
T2 sequence: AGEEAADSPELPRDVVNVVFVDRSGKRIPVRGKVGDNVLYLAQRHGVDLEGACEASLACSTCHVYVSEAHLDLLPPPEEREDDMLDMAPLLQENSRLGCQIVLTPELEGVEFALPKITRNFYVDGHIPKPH

[5] = target: T3, GLRX5-Flag (mouse GLRX5 with a C-terminal Flag epitope) (mouse) (UniProt Q80Y14)
T3 sequence: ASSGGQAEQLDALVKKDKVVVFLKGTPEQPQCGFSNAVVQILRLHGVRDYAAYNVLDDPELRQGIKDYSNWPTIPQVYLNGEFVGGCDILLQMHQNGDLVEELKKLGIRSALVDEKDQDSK

B1: NFU1 (endogenous, HeLa) (protein, UniProt Q9UMS0 10-254)
chain: GAAAVAAGLRRRFCHMLKNPYTIKKQPLHQFVQRPLFPLPAAFYHPVRYMFIQTQDTPNPNSLKFIPGKPVLETRTMDFPTPAAAFRSPLARQLFRIEGVKSVFFGPDFITVTKENEELDWNLLKPDIYATIMDFFASGLPLVTEETPSGEAGSEEDDEVVAMIKELLDTRIRPTVQEDGGDVIYKGFEDGIVQLKLQGSCTSCPSSIITLKNGIQNMLQFYIPEVEGVEQVMDDESDEKEANSP
binding [1]: binds | binding [2]: no binding | binding [3]: no binding

B2: ISCA2 (endogenous, HeLa) (protein, UniProt Q86U28 9-154)
chain: LTAATQRAVTPWPRGRLLTASLGPQARREASSSSPEAGEGQIRLTDSCVQRLLEITEGSEFLRLQVEGGGCSGFQYKFSLDTVINPDDRVFEQGGARVVVDSDSLAFVKGAQVDFSQELIRSSFQVLNNPQAQQGCSCGSSFSIKL
binding [4]: no binding | binding [1]: binds | binding [5]: binds | binding [2]: binds

B3: ISCA1 (endogenous, HeLa) (protein, UniProt Q9BUE6 13-129)
chain: T1 sequence with L36V, S51T, H116N, V117I
binding [2]: no binding | binding [3]: binds

B4: IBA57 (endogenous, HeLa) (protein, UniProt Q5T440 40-356)
chain: GDPTAGAAWACFRLDGRTLLRVRGPDAAPFLLGLLTNELPLPSPAAAGAPPAARAGYAHFLNVQGRTLYDVILYGLQEHSEVSGFLLECDSSVQGALQKHLALYRIRRKVTVEPHPELRVWAVLPSSPEACGAASLQERAGAAAILIRDPRTARMGWRLLTQDEGPALVPGGRLGDLWDYHQHRYLQGVPEGVRDLPPGVALPLESNLAFMNGVSFTKGCYIGQELTARTHHMGVIRKRLFPVRFLDPLPTSGITPGATVLTASGQTVGKFRAGQGNVGLALLWSEKIKGPLHIRASEGAQVALAASVPDWWPTVSK
binding [1]: no binding | binding [3]: binds

B5: GLRX5 (endogenous, HeLa) (protein, UniProt Q86SX6 32-157)
chain: AGSGAGGGGSAEQLDALVKKDKVVVFLKGTPEQPQCGFSNAVVQILRLHGVRDYAAYNVLDDPELRQGIKDYSNWPTIPQVYLNGEFVGGCDILLQMHQNGDLVEELKKLGIHSALLDEKKDQDSK
binding [3]: binds
